The text below walks through data of PubChem BioAssay AID2685 (National Center for Advancing Translational Sciences (NCATS), 2010).

The other results are listed elsewhere or left out. Shown are side measurements of this screen, not its main read-out; they come without a call. Compounds called inactive in the main read-out are mostly missing here. The note in brackets gives the kind of curve behind each potency; many fits are weak.

By AC50 is commonly meant the concentration at which the activity in the assay is half-maximal. Low readings indicate activity at low concentration, high ones activity only at high concentration.

The nature of this assay: qHTS Assay for Lipid Storage Modulators in Drosophila S3 Cells.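 For cell number change: cells counted by Cell Tracker Red CMTPX staining in the red channel.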 The settings on record: BODIPY lipid droplet fluorescence, 18-24 h; for cell number change: measured here: cell count max response, cells fed with added oleic acid. Summed up:
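Laser-scanning cytometry quantifies lipid droplet accumulation (500–530 nm total intensity; droplet/cell object ratio) in oleic acid-fed (400 uM added) Drosophila S3 cells treated with a concentration series. 20 uM Triacsin C defined 100% inhibition.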

Where [1] appears, read: measured here: lipid fluorescence (Fed channel) AC50, cells fed with added oleic acid.
[2] abbreviates: measured here: cell number channel AC50, cells fed with added oleic acid.

For `Clc1ccccc1OCc1nc(-c2ccncc2)no1`, the cell number change is -5.8%. Besides, under setting [1], the AC50 was 0.651 µM [rising, partial curve].

As for `Cc1cc(-c2cc(C(=O)NCc3ccccc3)on2)nc(NC2CCCC2)n1`, the cell number change came to 3.87%. Also, the concentration at half-maximal activity (AC50) under setting [1] was 3.66 µM [rising, partial curve, poor fit].

For `COc1cc(CC(=O)NCCc2ccc(S(N)(=O)=O)cc2)cc(OC)c1OC`, the cell number change was -47.7%. Moreover, the AC50 under setting [2] is 1.16 µM [falling, full curve]. In addition, the AC50 under setting [1] is 4.11 µM [falling, full curve].

Take `Cc1ccc(-c2nnc(NC(=O)c3ccco3)o2)c(C)c1`: under setting [2], the AC50 was 2.06 µM [falling, partial curve].

With `CSc1nnc2n(-c3ccccc3)c(=O)c3c4c(sc3n12)CCC4`, the cell number change was -10.7%.

With `Cc1nc(NC(=O)CN2CCCCC2)sc1C(=O)N(C)C`, the cell number change is -8.99%. Under setting [1], the AC50 is 32.6 µM [rising, single point].

On to `CC1(C(=O)O)CCC(C(=O)Nc2ccc(OC(F)(F)Cl)cc2)C1(C)C` (centres undefined), for which the cell number change is 2.84%.

On to `Cc1cc(S(N)(=O)=O)c(N)c(S(N)(=O)=O)c1`, for which the cell number change was -18.1%. In addition, the AC50 under setting [1] is 0.651 µM [falling, single point].

For `O=c1[nH]c(CN2CCCCC2)nc2ccccc12`, the cell number change was 18.1%.

Take `COc1ccc(NS(=O)(=O)c2cccc(C(=O)Nc3cccc(C(=O)O)c3)c2)cc1`: the cell number change amounted to 11.1%. Also, the AC50 under setting [1] was 0.58 µM [rising, single point].

For `CCn1cc(CN2CCCC(C(=O)Nc3ccc(-c4cscn4)cc3)C2)cn1` (centres undefined), the cell number change was 14.4%. Moreover, the AC50 under setting [1] was 7.31 µM [rising, partial curve, poor fit].

With `CC(=O)Nc1ccc(S(=O)(=O)NNC(=O)c2cc3c4ccccc4n(C)c3s2)cc1`, the cell number change turned out to be 152%. Further, the concentration at half-maximal activity (AC50) under setting [2] is 13 µM [rising, partial curve]. For the same molecule, the AC50 under setting [1] is 1.84 µM [rising, partial curve].

`CCOC(=O)/C(=C\c1ccc(OC)c(OC)c1)C(=O)c1cccnc1`: under setting [1], the half-maximal activity concentration (AC50) was 29.1 µM [falling, single point].

Take `c1csc(-c2nn3c(-c4ccncc4)nnc3s2)c1`: the cell number change was found to be 2.3%. For the same molecule, under setting [1], the AC50 was 18.4 µM [rising, single point].

Take `CCc1nc(N2CCC3(CC2)OCCO3)c2nnn(Cc3ccccc3)c2n1`: the cell number change was found to be 47.4%. Besides, the AC50 under setting [2] is 0.731 µM [rising, full curve]. Besides, the AC50 under setting [1] is 3.26 µM [rising, partial curve, poor fit].

For `CCN1C(Nc2ccccc2)=NC[C@@H]1Cc1ccccc1`, the concentration at half-maximal activity (AC50) under setting [1] is 25.9 µM [falling, single point].

On to `CCCCNC(=O)CCc1c(C)nc2c(c(C)nn2-c2ccccc2)c1C`, for which the cell number change was 8.45%. The AC50 under setting [2] is 0.092 µM [rising, full curve, poor fit]. Also, the AC50 under setting [1] is 6.51 µM [falling, partial curve].

On to `CC1CCN(C(=O)CC(NC(=O)c2ccccc2Cl)c2ccccc2)CC1` (centres undefined), for which the cell number change worked out at 9.25%. Moreover, the AC50 under setting [1] was 16.4 µM [rising, single point].

For the molecule `O=C(NCC1CCCO1)Nc1cc(Cl)cc(Cl)c1` (centres undefined), the cell number change is 152%. In addition, under setting [2], the AC50 was 18.4 µM [rising, partial curve].

Turning to `Cc1ccc(CCNC(=O)CSCc2ccc(F)cc2)cc1`, the cell number change was -31.2%. In addition, the AC50 under setting [1] is 29.1 µM [falling, single point].

Turning to `CCc1cc2c(N=Nc3c(O)[nH]c4ccccc34)ncnc2s1`, the cell number change was determined as 39.4%. In addition, under setting [2], the AC50 was 16.4 µM [rising, single point].

On to `N#Cc1nc(Cl)c(Cl)c(NN)c1Cl`, for which the cell number change amounted to 36.8%. The concentration at half-maximal activity (AC50) under setting [2] is 0.92 µM [rising, full curve]. In addition, the AC50 under setting [1] was 1.3 µM [rising, full curve].

In the case of `CNC(=O)c1ccc(NC(=O)CCNC(=O)Nc2ccccc2)cc1`, the cell number change is -4%.

For the molecule `O=C(Nc1ccccc1)C1=C(N2CCOCC2)/C(=C/c2cccnc2)CC1`, the AC50 under setting [2] was 0.461 µM [rising, full curve].

For the molecule `CCC(C)NC(=O)CSc1nnc(-c2ccc(OC)c(OC)c2)c(-c2ccc(OC)c(OC)c2)n1` (centres undefined), the cell number change amounted to 5%. The AC50 under setting [1] is 2.59 µM [rising, single point].

For the molecule `Cc1cc2ncn(C3CC(=O)N(Cc4ccccc4)C3=O)c2cc1C` (centres undefined), the AC50 is 3.26 µM [rising, single point] under setting [2] and 4.11 µM [rising, single point] under setting [1].

For `CCOC(=O)C1CCCN(C(=O)CCCn2nnnc2CN2CCOCC2)C1` (centres undefined), the cell number change was -6.1%. Besides, under setting [1], the AC50 was 2.91 µM [rising, single point].

On to `CC(=O)Oc1ccccc1C(=O)Oc1ccccc1C(=O)O`, for which the cell number change is -8.31%. Besides, under setting [1], the AC50 is 0.651 µM [falling, full curve, poor fit].

For `CCn1cc(C(=O)N(C)Cc2ccc(OC(F)F)cc2)c(=O)c2ccc(C)nc21`, the AC50 under setting [1] was 1.64 µM [falling, partial curve, poor fit].

Turning to `OC(COc1ccc(Br)cc1)CN1CCC(Cc2ccccc2)CC1` (centres undefined), the cell number change is -7.46%.

Regarding `O=C(O)C1C2CCC(O2)C1C(=O)Nc1ccc(O)cc1` (centres undefined), the cell number change was -1.73%. Besides, the AC50 under setting [1] was 6.51 µM [rising, full curve, poor fit].

With `CN1CC=C2C(C#N)=C(N)C(C#N)(C#N)[C@H](c3ccoc3)[C@H]2C1`, the cell number change is 8%. In addition, under setting [1], the AC50 was 0.103 µM [rising, full curve, poor fit].

On to `Nc1ccccc1SC1CC(=O)N(c2ccccc2Cl)C1=O` (centres undefined), for which the cell number change is 35.6%. In addition, the AC50 under setting [2] is 29.1 µM [rising, single point].

Regarding `O=S(=O)(c1ccc(N2CCCC2)nc1)N1CCOCC1`, the cell number change came to 8.45%. Besides, the AC50 under setting [1] is 0.731 µM [falling, full curve].

Take `O=C(c1ccc(S(=O)(=O)NCc2ccco2)cc1)N1CCCC(C(F)(F)F)C1` (centres undefined): the cell number change was -18.7%. Besides, the AC50 under setting [1] is 4.11 µM [falling, single point].

Take `CCN1/C(=C\c2ccc3cc(C)ccc3[n+]2CC)Sc2cc(C)c(C)cc21`: the cell number change was -98.5%. In addition, the AC50 under setting [1] was 4.61 µM [falling, full curve].

In the case of `O=C1Nc2ccccc2C1(c1ccccc1)c1ccccc1`, the cell number change is -23%. The AC50 under setting [2] is 0.651 µM [falling, full curve]. Moreover, under setting [1], the AC50 was 0.651 µM [falling, full curve].

As to `Cc1cccc(CS(=O)(=O)c2ncc(Cl)c(C(=O)NCc3ccccc3)n2)c1`, the cell number change is 6.23%. In addition, the AC50 under setting [2] is 2.91 µM [falling, partial curve]. Further, the AC50 under setting [1] is 3.66 µM [falling, partial curve].

As for `COc1ccc(OC)c(N(CC(=O)N2CCN(Cc3ccccc3)CC2)S(C)(=O)=O)c1`, the cell number change was -11.5%. In addition, the concentration at half-maximal activity (AC50) under setting [1] is 7.31 µM [rising, partial curve, poor fit].

As for `COC(=O)CNC(=O)Cc1c(C)n(C(=O)c2ccc(Cl)cc2)c2ccc(OC)cc12`, the cell number change is -12.9%. In addition, the AC50 under setting [1] is 16.4 µM [falling, single point].

On to `CN(C)c1ccc(C2N(C(=O)N3CCOCC3)CCN2S(=O)(=O)c2ccccc2)cc1` (centres undefined), for which the cell number change was determined as 4.13%. Also, under setting [1], the half-maximal activity concentration (AC50) was 0.13 µM [falling, full curve, poor fit].

With `CCN(CC)c1ccc(NC(=O)CSc2ccsc2[N+](=O)[O-])c(C)c1`, the cell number change turned out to be 31%. The half-maximal activity concentration (AC50) under setting [2] is 13 µM [rising, single point].

For `OC(CNCc1ccncc1)c1ccccc1` (centres undefined), the cell number change is 4.91%. Besides, the AC50 under setting [2] was 0.00461 µM [rising, full curve, poor fit].

Take `CCOC(=O)c1ccc(Nc2ncnc3nc[nH]c23)cc1`: the cell number change was -0.733%. For the same molecule, the AC50 under setting [1] was 6.51 µM [rising, single point].

Turning to `CC1CCC(C(C)C)C(OC(=O)Cn2c(-c3ccc(F)cc3)[n+](C)c3ccccc32)C1` (centres undefined), the cell number change was -54.4%. In addition, under setting [2], the AC50 is 8.2 µM [falling, partial curve]. The AC50 under setting [1] was 6.51 µM [falling, partial curve].

`COC(=O)c1cn(NC(=O)c2ccccc2[N+](=O)[O-])c(=O)c2ccccc12`: the cell number change is 76.7%.

For the molecule `Cc1cccc(-c2nc(CS(=O)CC(=O)N3CCN(C)CC3)c(C)o2)c1` (centres undefined), the cell number change was 9.7%. Moreover, the AC50 under setting [1] was 6.51 µM [falling, partial curve, poor fit].

On to `COc1ccccc1N1CCN(C(=O)c2ccc3nc[nH]c3c2)CC1`, for which the cell number change was 9.29%.

For `CCC(C)C(=O)Nc1ccc(OC)cc1OC` (centres undefined), the AC50 under setting [1] was 1.46 µM [falling, partial curve].

As to `CC(C)Oc1ccc(C(=O)Nc2ccc(Cl)c(S(=O)(=O)Nc3ccc(Cl)cc3)c2)cc1`, the cell number change worked out at 12.1%. Moreover, the AC50 under setting [2] is 1.16 µM [rising, partial curve, poor fit]. For the same molecule, under setting [1], the AC50 was 1.03 µM [rising, partial curve].

Regarding `O=C(c1cc2ccccc2o1)N1CCN(S(=O)(=O)c2ccc(F)c(F)c2F)CC1`, the cell number change was -9.8%. The AC50 under setting [2] is 4.11 µM [rising, single point]. Besides, under setting [1], the AC50 is 2.91 µM [rising, partial curve].

`COc1cccc(C(=O)N2CCCc3ccccc32)c1`: the cell number change was -1.89%.

`O=c1oc2ccccc2c(Nc2ccc(Cl)cc2)c1[N+](=O)[O-]`: the cell number change came to 28.7%. Moreover, the AC50 under setting [1] was 0.731 µM [rising, partial curve, poor fit].

As for `COc1cc([C@@H]2c3cc4c(cc3[C@@H](NC3CCN(Cc5ccccc5)CC3)[C@H]3COC(=O)[C@H]23)OCO4)cc(OC)c1O`, the cell number change is -13.7%. The AC50 under setting [2] is 4.11 µM [falling, partial curve, poor fit]. In addition, the AC50 under setting [1] was 1.16 µM [falling, partial curve, poor fit].

For the molecule `COc1ccc(C)cc1N(CC(=O)N1CCOCC1)S(C)(=O)=O`, the cell number change is -5.87%. The AC50 under setting [1] is 16.4 µM [rising, partial curve].

With `CCCCN(C)C(=O)c1cc2c(s1)-c1ccccc1S(=O)(=O)C2`, the cell number change was determined as 1.94%.

As to `O=C(COc1cccc(C(F)(F)F)c1)N1CCN(c2ccc(O)cc2)CC1`, the AC50 under setting [1] was 29.1 µM [rising, single point].

With `Cc1cc(C)n(-c2nc3ccccc3n3cnnc23)n1`, the cell number change came out at 12.5%. The AC50 under setting [1] is 4.61 µM [rising, full curve, poor fit].

For `CC(=O)c1ccc(S(=O)(=O)N(C)CCCC(=O)N2CCN(c3ncccn3)CC2)cc1`, the cell number change was -0.551%. For the same molecule, the AC50 under setting [1] was 29.1 µM [rising, single point].

Consider `O=C(Nc1cc(F)cc(F)c1)c1sc(Cl)nc1-c1ccccc1`, for which, under setting [1], the concentration at half-maximal activity (AC50) is 6.51 µM [rising, single point].
